Assay [1] deals with T1, human CD200R1 recombinant protein (human) (UniProt Q8TD46).
T1 sequence (looked up): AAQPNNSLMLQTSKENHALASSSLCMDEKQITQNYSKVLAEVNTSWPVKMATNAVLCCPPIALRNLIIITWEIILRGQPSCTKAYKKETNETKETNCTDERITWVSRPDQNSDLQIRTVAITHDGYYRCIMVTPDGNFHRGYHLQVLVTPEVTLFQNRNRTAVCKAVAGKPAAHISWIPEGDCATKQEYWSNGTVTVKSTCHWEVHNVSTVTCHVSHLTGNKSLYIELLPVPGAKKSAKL
The assay can be described thus: ELISA on human CD200R1 recombinant protein. Background: An ELISA detects its analyte on a solid surface through an enzyme-linked reagent.

Assay [2] addresses T2, human CD200R1 on cells (HH, Jurkat-CD200R1, U937-CD200R1) (human) (UniProt Q8TD46).
T2 sequence (looked up): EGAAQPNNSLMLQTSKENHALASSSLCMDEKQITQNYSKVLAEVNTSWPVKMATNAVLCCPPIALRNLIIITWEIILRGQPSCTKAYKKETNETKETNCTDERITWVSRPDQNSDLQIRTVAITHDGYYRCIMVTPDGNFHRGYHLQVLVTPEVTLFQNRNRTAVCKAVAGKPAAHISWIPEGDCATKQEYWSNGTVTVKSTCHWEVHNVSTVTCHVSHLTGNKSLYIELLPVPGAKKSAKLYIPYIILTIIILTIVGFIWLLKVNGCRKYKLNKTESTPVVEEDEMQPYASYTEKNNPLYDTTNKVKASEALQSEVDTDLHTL
The experiment in a line: flow cytometry, IgG1 form at 500 nM, HH and Jurkat-CD200R1 cells. (In flow cytometry, cells or beads pass a laser one at a time.)

Assay [3] deals with T2, human CD200R1 on cells (HH, Jurkat-CD200R1, U937-CD200R1) (human). The assay can be described thus: cell binding assay (FACS), HH cells.
Assay [4] deals with T1, human CD200R1 recombinant protein (human). The assay can be described thus: antigen binding assay (ELISA) on human CD200R1.
Assay [5] has the same target. The experiment in a line: ELISA.
For assay [6], the target named is T2, human CD200R1 on cells (HH, Jurkat-CD200R1, U937-CD200R1) (human). The experiment in a line: flow cytometry on CD200R1-expressing cells.
Assay [7] shares this target. The experiment in a line: flow cytometry, IgG4 and LALAPG forms, HH and Jurkat-CD200R1 cells.

No constants are given. Whether binding was seen depends on the method and setting. Some results given as binding are weak or reduced against the parent protein; the word gives no strength.

B1: P001018v1 (antibody, V domains shown)
VH: QVQLVQSGAEVKKPGASVKVSCKASGYTFTSYVMHWVRQAPGQGLEWMGYINPYNDDTNYNEKFKGRVTMTRDTSTSTVYMELSSLRSEDTAVYYCAREDYYGSRWGKWGQGTLVTVSS
VL: DIVLTQSPASLAVSPGQRATITCRASKSVSTSGYSYMHWYQQKPGQPPKLLIYLASNLESGVPARFSGSGSGTDFTLTINPVEANDTANYYCQHSRELLTFGQGTKVEIK
As to B1, the binding result in assay [1] is recorded as “binds”.

B2: P001018v2356 (antibody, V domains shown)
VH: QVQLVQSGAEVKKPGASVKVSCKASGYTFTSYVMHWVRQAPGQGLEWMGYINPYNDDTNYNEKFKGRVTMTRDTSTSTVYMELSSLRSEDTAVYYCAREDYYGSRWGTWGQGTLVTVSS
VL: DIVLTQSPASLAVSPGQRATITCRASKSVSTSGYSYMHWYQQKPGQPPKLLIYLASNLESGVPARFSGSGSGTDFTLTINPVEANDTANYYCQHSHELDRFGQGTKVEIK
Consider B2, for which, in assay [1], the binding result is on record as “binds”.

B3: P001018v236 (antibody, V domains shown)
VH: QVQLVQSGAEVKKPGASVKVSCKASGYTFTSYVMHWVRQAPGQGLEWMGYINPYNDDTNYNEKFKGRVTMTRDTSTSTVYMELSSLRSEDTAVYYCAREDYYGSRWGTWGQGTLVTVSS
VL: DIVLTQSPASLAVSPGQRATITCRASKSVSTSGYSYMHWYQQKPGQPPKLLIYLASNLESGVPARFSGSGSGTDFTLTINPVEANDTANYYCQHSHELDTFGQGTKVEIK
B3: the binding result in assay [1] is on record as “binds”.

B4: P001018v26 (antibody, V domains shown)
VH: QVQLVQSGAEVKKPGASVKVSCKASGYTFTSYVMHWVRQAPGQGLEWMGYINPYNDDTNYNEKFKGRVTMTRDTSTSTVYMELSSLRSEDTAVYYCAREDYYGSRWGTWGQGTLVTVSS
VL: DIVLTQSPASLAVSPGQRATITCRASKSVSTSGYSYMHWYQQKPGQPPKLLIYLASNLESGVPARFSGSGSGTDFTLTINPVEANDTANYYCQHSHELLTFGQGTKVEIK
On to B4, for which, in assay [1], the binding result is recorded as “binds”.

B5: P001018v36 (antibody, V domains shown)
VH: QVQLVQSGAEVKKPGASVKVSCKASGYTFTSYVMHWVRQAPGQGLEWMGYINPYNDDTNYNEKFKGRVTMTRDTSTSTVYMELSSLRSEDTAVYYCAREDYYGSRWGTWGQGTLVTVSS
VL: DIVLTQSPASLAVSPGQRATITCRASKSVSTSGYSYMHWYQQKPGQPPKLLIYLASNLESGVPARFSGSGSGTDFTLTINPVEANDTANYYCQHSRELDTFGQGTKVEIK
Consider B5, for which the binding result in assay [1] is “binds”.

B6: P001018v6 (antibody, V domains shown)
VH: QVQLVQSGAEVKKPGASVKVSCKASGYTFTSYVMHWVRQAPGQGLEWMGYINPYNDDTNYNEKFKGRVTMTRDTSTSTVYMELSSLRSEDTAVYYCAREDYYGSRWGTWGQGTLVTVSS
VL: DIVLTQSPASLAVSPGQRATITCRASKSVSTSGYSYMHWYQQKPGQPPKLLIYLASNLESGVPARFSGSGSGTDFTLTINPVEANDTANYYCQHSRELLTFGQGTKVEIK
With B6, the binding entry in assay [1] is listed as “binds”.

B7: ch1F1 (antibody, V domains shown)
VH: QVQLQQPGAEFVKPGAPVKLSCKASGYTFTSYWMNWVKQRPGRGLEWIGRIDPADSEIHYNQKFKDKATLTVDKSSSTAYIQFSSLTSEDSAVYYCARSGGWLPGFAYWGQGTLVTVSA
VL: ENVLTQSPAIMSASPGEKVTMTCSASSSLIYMHWYQQKSSTSPKLWIYDTSKLASGVPGRFSGSGSGNSYSLTINSMEAEDVATYYCFQGSGYPLMYTFGGGTKLEIK
With B7, the binding entry in assay [2] is recorded as “binds”.

B8: H3-Y102K scFv (scFv)
scFv: QVQLVQSGAEVKKPGASVKVSCKASGYTFTSYVMHWVRQAPGQGLEWMGYINPYNDDTNYNEKFKGRVTMTRDTSTSTVYMELSSLRSEDTAVYYCAREDYYGSRWGKWGQGTLVTVSSGGGGSGGGGSGGGGSDIVLTQSPASLAVSPGQRATITCRASKSVSTSGYSYMHWYQQKPGQPPKLLIYLASNLESGVPARFSGSGSGTDFTLTINPVEANDTANYYCQHSRELLTFGQGTKVEIK
As for B8, the binding entry in assay [3] and in assay [4] was “binds” throughout.

B9: H3-Y102T scFv (scFv)
scFv: QVQLVQSGAEVKKPGASVKVSCKASGYTFTSYVMHWVRQAPGQGLEWMGYINPYNDDTNYNEKFKGRVTMTRDTSTSTVYMELSSLRSEDTAVYYCAREDYYGSRWGTWGQGTLVTVSSGGGGSGGGGSGGGGSDIVLTQSPASLAVSPGQRATITCRASKSVSTSGYSYMHWYQQKPGQPPKLLIYLASNLESGVPARFSGSGSGTDFTLTINPVEANDTANYYCQHSRELLTFGQGTKVEIK
For the molecule B9, the binding result in assay [3] and in assay [4] was “binds” throughout.

B10: P001009v1 (antibody, V domains shown)
VH: EVQLLESGGGLVQPGGSLRLSCAASGFTFSSYDMSWVRQAPGKGLEWVSWISHGGGSIYYADSVKGRFTISRDNSKNTLYLQMNSLRAEDTAVYYCARDAPAYSAPLFDYWGQGTLVTVSS
VL: QSVLTQPPSASGTPGQRVTISCSGSSSNIGNNAVNWYQQLPGTAPKLLIYYDKNRPSGVPDRFSGSKSGTSASLAISGLRSEDEADYYCAAWDDRLSGYVFGGGTKLTVL
On to B10, for which the binding result in assay [5] and in assay [6] was “binds” throughout.

B11: P001009v2 (antibody, V domains shown)
VH: EVQLLESGGGLVQPGGSLRLSCAASGFTFSSYDMSWVRQAPGKGLEWVSWISHGGGSIYYADSVKGRFTISRDNSKNTLYLQMNSLRAEDTAVYYCARDAPAYSAPLFDYWGQGTLVTVSS
VL: QSVLTQPPSASGTPGQRVTISCSGSSSNIGNNAVNWYQQLPGTAPKLLIYYDKNRPSGVPDRFSGSKSGTSASLAISGLRSEDEADYYCAAWDRSLSGYVFGGGTKLTVL
With B11, the binding entry in assay [5] and in assay [6] was “binds” throughout.

B12: P001008 (antibody, V domains shown)
VH: EVQLLESGGGLVQPGGSLRLSCAASGFTFSSYDMSWVRQAPGKGLEWVSWISHGGGSIYYADSVKGRFTISRDNSKNTLYLQMNSLRAEDTAVYYCARDAPALMHSLFDYWGQGTLVTVSS
VL: QSVLTQPPSASGTPGQRVTISCSGSSSNIGSNHVNWYQQLPGTAPKLLIYYDSQRPSGVPDRFSGSKSGTSASLAISGLRSEDEADYYCGSWDASLNGYVFGGGTKLTVL
Turning to B12, the binding result in assay [7] was “binds”.

B13: ch6C3 (antibody, V domains shown)
VH: QVQLQQPGAELVRPGASVKLSCKASAYTFTSYWMNWVKQRPEQGLEWIGRIDPYDSETHYNQKFKDKAILTVDKSSSTAYMQLSSLTSEDSAVYYCARVDGNHLFDYWGQGTTLTVSS
VL: DIKMTQSPSSMYASLGERVTITCKASQDINSYLSWFQQKPGKSPKTLIYRANRLVDGVPSRFSGSGSGQDYSLTISSLEYEDMGIYYCLQYDEFPYTFGGGTKLEIK
With B13, the binding result in assay [2] is listed as “binds”.

B14: P001006 (antibody, V domains shown)
VH: EVQLLESGGGLVQPGGSLRLSCAASGFTFSDYAMSWVRQAPGKGLEWVSGISYGNGNTYYADSVKGRFTISRDNSKNTLYLQMNSLRAEDTAVYYCAKDPWQTAINDFDYWGQGTLVTVSS
VL: QSVLTQPPSASGTPGQRVTISCTGSSSNIGNNSVNWYQQLPGTAPKLLIYTNSHRPSEVPDRFSGSKSGTSASLAISGLRSEDEADYYCGTWDSSLSGYVFGGGTKLTVL
With B14, the binding result in assay [7] is “binds”.

The record behind these values is patent EP4722249A1 (AIMED BIO INC., dated 2026).
